# Reference: the supplement of paper PMC8007513
# The other results are listed elsewhere or left out. Single values are uncertain, as repeats are few or missing.
# Test system: Saccharomyces cerevisiae BY4743
# Assay: growth (OD600) relative to untreated control; higher = less growth inhibition
# Settings: compound concentration: 133 uM; 20 h
# Procedure: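 NMCCC compounds (133 uM, no IPBC) tested alone against Saccharomyces cerevisiae BY4743 in YPD, 96-well plates, starting OD600 ~0.1. Growth was read as OD600 at 20 h and expressed as % of the untreated control. Single pass.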
row,SMILES,growth
1,COc1ccc(-c2ccc3c(N)c(C(=O)NC(C)C)sc3n2)cc1OC,109%
2,CC(C)C[C@H](NC(=O)N1CCc2ccccc21)C(=O)O,90.3%
3,ClC1=CC=CC(=C1)NC(=O)CS\C2=N\C(=O)CC(N2)C3=CC=CC=C3 (stereo not drawn),99.2%
4,CCCc1cc(O)nc(SCC(=O)N2CCc3sccc3C2)n1,110%
5,CN1\C(=C/C(=N\[S]1(=O)=O)C2=CC=C(C)C=C2)C(=O)NC(C)(C)CO,101%
6,CCOc1ccc(Oc2ccc(NC(=O)c3cc(S(=O)(=O)NC(C)C)cn3C)cc2)cc1,93%
7,COc1ccc(C2N(c3ccc(Cl)cc3)C(=O)C(C)S2(=O)=O)cc1 (stereo not drawn),101%
8,COc1cc(NC(=O)c2cccnc2Sc2ccccc2)cc(OC)c1,102%
9,O=C(CN1\N=N/C2=CC=CC=C2C1=O)NC3(CCCCC3)C#N,96.9%
10,O=C(CN1CCN(c2csc(Cl)n2)CC1)Nc1ccc(Cl)c(C(F)(F)F)c1,103%
11,Cc1ccn(CCC(=O)NC(C)Cc2ccco2)n1 (stereo not drawn),98%
12,CN(CCNC(=O)N\C1=C\N(C)C(=O)C2=CC=CC=C12)C3CCCCC3,104%
13,O=C(CSc1nc2ccc[nH]c-2n1)Nc1nccs1,101%
14,COC(=O)CNS(=O)(=O)c1ccc(NC(=O)c2cc3c(s2)CCCCCC3)cc1,97.6%
15,CN(C(=O)COCc1cc(-c2ccc(F)cc2)on1)c1ccccc1,104%
16,CCC(=O)N1CCc2cc(Br)c(S(=O)(=O)N3CCN(CC)CC3)cc21,95.4%
17,Cc1cc(C)cc(NC(=O)CSc2nc(O)c3c(n2)CCCC3)c1,101%
18,CCCN(CC(=O)NC1=CC=CC=C1OC)C(=O)\C2=C\OCCO2,110%
19,Cc1nn(CC(C)C)c2sc(C(=O)OCC(=O)NC(=O)NCC(C)C)cc12,88.5%
20,CCCCc1c(C)nn(-c2nc(C)c(C(=O)NC(C)C)s2)c1O,120%
21,CC(C)NC(=O)NCCc1nc2cccnc2n1-c1ccccc1,102%
22,Cn1cccc1C(=O)NC(=O)CSc1nc2cc(Cl)c[nH]c-2n1,104%
23,CC(C)COc1ccccc1C(=O)Nc1ccccc1C(=O)N1CCCC1,98.6%

# Individual results from the list:
# O=C(CN1CCN(c2csc(Cl)n2)CC1)Nc1ccc(Cl)c(C(F)(F)F)c1 – growth: 103%
# Cc1ccn(CCC(=O)NC(C)Cc2ccco2)n1 (stereo not drawn) – growth: 98%
